Biological target: RPS6KA
Test: Full dose-response kinase assay
Assay type: biochemical

CN[C@@H]1C[C@H]2O[C@@](C)([C@@H]1OC)n1c3ccccc3c3c4c(c5c6ccccc6n2c5c31)C(=O)NC4 [Staurosporine, staurosporine, reference compound]
IC50 RPS6KA: 3 nℳ nM

Source: PMC3432483 (Blood Cancer Journal, 2012)
